PubChem BioAssay AID624305 (National Center for Advancing Translational Sciences (NCATS), 2012)
Inconclusive results, whose numbers are uncertain, are shown with a selection of clear calls. Potencies of inconclusive entries are doubtful fits and often do not repeat. Activity calls are given as the source filed them. Calls come from the whole dose curve; as a rule, active = well fitted activation curve with a large enough effect; inconclusive = small, poorly fitted or top-dose-only effect; inactive = no such curve, though single readings can be large or run the other way.

Assay: qHTS assay for re-activators of p53 using a Luc reporter: Hit Validation; note: nearly all actives have a fitted effect of over 75% in size; for activation: 0% is about no effect
Details: p53-responsive luciferase reporter cells, luminescence, H1299 line expressing heat-sensitive Ala138Val p53; series mostly up to 46.1 µM; activation: at the top concentration
Method in brief: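 H1299 (p53-null) cells stably carrying p53-A138V and a BP100-luciferase reporter, 1000 cells/well, treated 24 h at 37 deg C. Compounds at several concentrations, 1:5 dilution; nocodazole control; luminescence read after 10 min with detection reagent.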
Potency is the fitted concentration of half-maximal effect.

Question: For `COc1cc(CNC2CCCCCCC2)c(Br)cc1OCCO`, which “activation” value is on record?
Answer: The value was inactive: 26%.

Question: Which Potency does the source give for `Cc1c(/C(O)=C2/C(=O)C(=O)N(CCN3CCOCC3)C2c2cccs2)cnn1-c1ccccc1` (configuration not stated) here?
Answer: Its Potency is active: 8200 nM.

Question: For `O=C(c1cccs1)c1ccc(-c2cccs2)s1`, which Potency is on record?
Answer: Its Potency is inconclusive: 4610 nM [activator, partial curve, poor fit].

Question: For `O=C(Nc1ccc2ccccc2c1)c1ccc(Cl)cc1Cl`, which Potency is on record?
Answer: The Potency was active: 291 nM.

Question: For `COc1ccc(CCC(=O)Nc2ccc(-c3noc(-c4ccc(OC)c(OC)c4)n3)cc2)cc1`, which “activation” value is on record?
Answer: Its value is inactive: 28.1%.

Question: Which Potency does the source give for `O=C(CSc1nnc(-c2csc3c2CCCC3)o1)Nc1ccccc1` here?
Answer: Its Potency is inconclusive: 2910 nM [activator, partial curve, poor fit].

Question: For `Cc1cccc(NC(=O)c2cnc3ccccn3c2=O)c1`, which Potency is on record?
Answer: The Potency was inconclusive: 73.1 nM [activator, full curve, poor fit].

Question: With `COc1ccc(N2CCN(C(=O)COC(=O)c3ccc(OC(F)F)cc3)CC2)cc1` as the compound, how does the “activation” value read?
Answer: The value was inactive: -10.9%.

Question: For `Cc1noc(C)c1C(=O)OCC(=O)N1CCc2ccccc21`, which “activation” value is on record?
Answer: The value was inactive: 12%.

Question: With `Cc1ccc(-c2noc(CN3CCC(C(N)=O)CC3)n2)cc1` as the compound, how does the Potency read?
Answer: The Potency was inconclusive: 29100 nM [activator, single point].

Question: With `C=CCn1c(C)cc(C(=O)CSc2nc3ccccc3o2)c1C` as the compound, how does the Potency read?
Answer: The Potency was active: 731 nM.

Question: Which Potency does the source give for `CS(=O)(=O)n1nc(-c2ccccc2)nc1NCc1ccco1` here?
Answer: Its Potency is inconclusive: 46100 nM [activator, single point].

Question: Which Potency does the source give for `CCCS(=O)(=O)N1CCC(C(=O)NCCN(CC)c2ccccc2)CC1` here?
Answer: Its Potency is inconclusive: 29100 nM [activator, single point].

Question: With `CCOC(=O)c1c(C)[nH]c(C(=O)OCCOc2ccccc2C)c1C` as the compound, how does the Potency read?
Answer: Its Potency is active: 1300 nM.

Question: Which Potency does the source give for `NNC(=O)c1cccc(COc2ccc(Br)cc2)c1` here?
Answer: The Potency was inconclusive: 920 nM [activator, partial curve, poor fit].

Question: Which Potency does the source give for `C/C(=C\C(=O)c1ccccc1)Nc1ccc2c(c1)OCO2` here?
Answer: Its Potency is active: 2910 nM.

Question: Which Potency does the source give for `N#C/C(=C/c1ccccc1[N+](=O)[O-])c1nc(C2CC2)cs1` here?
Answer: Its Potency is active: 5800 nM.

Question: Which Potency does the source give for `O=c1oc(-c2ccc(O)c(O)c2)cc2cc(O)cc(O)c12` here?
Answer: Its Potency is active: 11600 nM.

Question: For `CCOc1ccc2c(c1)c(N=Nc1cccc(C(=O)O)c1)c(O)n2C`, which Potency is on record?
Answer: Its Potency is inconclusive: 2310 nM [activator, full curve, poor fit].

Question: Which “activation” value does the source give for `COc1ccc(C2SCCN2C(=S)Nc2ccc(Cl)cc2)cc1` (configuration not stated) here?
Answer: Its value is inactive: 24.5%.

Question: With `Cc1ccc2nc(-c3ccc(NC(=O)COC(=O)c4ccc(Br)o4)cc3)sc2c1` as the compound, how does the Potency read?
Answer: Its Potency is active: 51.7 nM.

Question: Which Potency does the source give for `O=C(Nc1ccc(CN2CCOCC2)cc1)c1cc2ccccn2n1` here?
Answer: The Potency was inconclusive: 291 nM [activator, partial curve, poor fit].

Question: With `O=C(/C=C\Nc1cccc(F)c1)c1ccc2c(c1)OCO2` as the compound, how does the Potency read?
Answer: The Potency was inconclusive: 920 nM [activator, partial curve, poor fit].

Question: Which activation does the source give for `CCCN1C(=O)SC(CC(=O)Nc2ccccc2C)C1=O` (configuration not stated) here?
Answer: Its activation is inactive: 12.4% [at 9.22 µM].

Question: Which “activation” value does the source give for `CCN1CCN(/C=N/c2nc3c(s2)CCCC3)CC1` here?
Answer: Its value is inactive: -13%.

Question: With `O=C(NCC(=O)N1CCN(c2ncccn2)CC1)c1ccc(F)cc1` as the compound, how does the “activation” value read?
Answer: Its value is inactive: 18.2%.

Question: Which Potency does the source give for `COC(=O)c1ccc(-c2nc(-c3cccs3)no2)cc1` here?
Answer: The Potency was active: 146 nM.
